The record followed here is PMC4792416.

By UniProt entry, the sequences of proteins in these tests, tags left out. Where a name states a change or a piece, a line headed by the entry shows the natural chain unless it says otherwise.
UniProt O82307: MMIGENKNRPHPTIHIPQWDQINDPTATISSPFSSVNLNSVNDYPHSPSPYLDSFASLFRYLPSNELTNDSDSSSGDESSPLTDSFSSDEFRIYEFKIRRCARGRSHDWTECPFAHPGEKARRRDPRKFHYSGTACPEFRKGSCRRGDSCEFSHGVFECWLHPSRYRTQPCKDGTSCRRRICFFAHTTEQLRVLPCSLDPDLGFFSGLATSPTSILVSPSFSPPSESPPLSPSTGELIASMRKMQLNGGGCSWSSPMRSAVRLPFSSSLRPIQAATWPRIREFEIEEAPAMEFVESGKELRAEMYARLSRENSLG
UniProt P43297: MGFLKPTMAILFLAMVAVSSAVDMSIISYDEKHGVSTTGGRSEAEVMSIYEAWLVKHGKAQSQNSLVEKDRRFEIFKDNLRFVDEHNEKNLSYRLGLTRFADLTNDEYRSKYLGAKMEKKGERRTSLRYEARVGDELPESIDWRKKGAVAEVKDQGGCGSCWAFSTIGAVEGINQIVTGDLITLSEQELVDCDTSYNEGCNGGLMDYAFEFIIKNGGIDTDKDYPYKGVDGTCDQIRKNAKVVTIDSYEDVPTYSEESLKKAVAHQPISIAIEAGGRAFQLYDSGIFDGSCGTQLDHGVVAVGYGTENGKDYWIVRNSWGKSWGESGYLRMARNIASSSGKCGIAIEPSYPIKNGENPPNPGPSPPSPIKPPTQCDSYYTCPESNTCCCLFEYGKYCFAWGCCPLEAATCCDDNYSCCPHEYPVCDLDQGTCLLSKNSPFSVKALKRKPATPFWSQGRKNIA

Like-named read-outs stand apart in the source and are kept apart here. These are yes or no findings as the source states them, for the method shown. For part of these data: Binding calls can cover weak binding; strength is not graded here. For part of these data: Where a sequence is shown, tags or fusion partners need not be part of it. For part of these data: Binding seen in cells or lysates may run through a third protein.

Assay [1] has as its target AtTZF1 full length, GAL4 DNA binding domain fusion (pAS1 bait) (Arabidopsis thaliana) (UniProt O82307). The assay is described as follows: two-hybrid; directed test in yeast PJ69-4A by co-expression of bait (GAL4 BD, pAS1) and prey (GAL4 AD); growth assay.
Assay [2] has as its target T1, AtTZF6 full length, GAL4 DNA binding domain fusion (pAS1 bait) (Arabidopsis thaliana) (UniProt O65036).
T1 sequence: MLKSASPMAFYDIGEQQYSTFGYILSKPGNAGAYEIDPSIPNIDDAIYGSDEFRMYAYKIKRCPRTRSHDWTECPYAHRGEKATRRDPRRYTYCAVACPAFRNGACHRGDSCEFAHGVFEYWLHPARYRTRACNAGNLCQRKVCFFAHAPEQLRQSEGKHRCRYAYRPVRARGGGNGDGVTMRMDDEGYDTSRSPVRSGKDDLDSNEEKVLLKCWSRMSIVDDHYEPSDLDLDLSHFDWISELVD
The assay is described as above.

Assay [3] has as its target AtTZF5 full length, GAL4 DNA binding domain fusion (pAS1 bait) (Arabidopsis thaliana). The description is as above.
For assay [4], the target named is AtTZF1 full length, GAL4 DNA binding domain fusion (pAS1 bait) (Arabidopsis thaliana) (UniProt O82307). Described as above. This is another data set of the same source.
Assay [5] concerns the target AtTZF5 RR-TZF motif, GAL4 DNA binding domain fusion (pAS1 bait) (Arabidopsis thaliana). Described as above.
Assay [6] has as its target AtTZF5 TZF motif, GAL4 DNA binding domain fusion (pAS1 bait) (Arabidopsis thaliana). Described as above.
In assay [7] the target is AtTZF1-CYFP (Arabidopsis thaliana) (UniProt O82307). The assay is described as follows: split reporter; BiFC with CYFP and NYFP fusions, paired constructs co-transformed into Arabidopsis protoplasts; YFP fluorescence by microscopy.
Assay [8] deals with AtTZF5 TZF motif, BiFC fusion (Arabidopsis thaliana). Described as above.
In assay [9] the target is AtTZF5 RR-TZF motif, BiFC fusion (Arabidopsis thaliana). Described as above.
The target of assay [10] is AtTZF5 full length, GFP-tagged (pK7FWG2) (Arabidopsis thaliana). Description: co-IP; GFP-tagged and HA-tagged proteins co-expressed with p19 in N. benthamiana leaves by agroinfiltration; anti-GFP antibody on protein A Sepharose, 2 h at 4°C; co-IP products detected with anti-HA antibody.

Turning to “Responsive to Dehydration 21A (RD21A) full length, GAL4 activation domain fusion (pAD-GAL4-2.1 prey) (from UniProt P43297 1-462)”, the binding result in assay [1] is on record as “no binding”.

Regarding “DCP1, GAL4 activation domain fusion (Arabidopsis thaliana)”, the binding result in assay [2] is “no binding”.

B1: polyA-binding protein PABP8, GAL4 activation domain fusion (protein, UniProt Q9FXA2 1-671)
chain: MAQIQHQGQNANGGVAVPGAAAAEAAAAAAGAAAAAAGAAQQGTTSLYVGDLDATVTDSQLFEAFTQAGQVVSVRVCRDMTTRRSLGYGYVNYATPQDASRALNELNFMALNGRAIRVMYSVRDPSLRKSGVGNIFIKNLDKSIDHKALHETFSAFGPILSCKVAVDPSGQSKGYGFVQYDTDEAAQGAIDKLNGMLLNDKQVYVGPFVHKLQRDPSGEKVKFTNVYVKNLSESLSDEELNKVFGEFGVTTSCVIMRDGEGKSKGFGFVNFENSDDAARAVDALNGKTFDDKEWFVGKAQKKSERETELKQKFEQSLKEAADKSQGSNLYVKNLDESVTDDKLREHFAPFGTITSCKVMRDPSGVSRGSGFVAFSTPEEATRAITEMNGKMIVTKPLYVALAQRKEDRKARLQAQFSQMRPVNMPPAVGPRMQMYPPGGPPMGQQLFYGQGPPAMIPQPGFGYQQQLVPGMRPGGSPMPNFFMPMMQQGQQQQQQQQQQQRPGGGRRGALPQPQQPSPMMQQQMHPRGRMYRYPQRDVNTMPGPTQNMLSVPYDVSSGGGVHHRDSPTSQPVPIVALATRLANAAPEQQRTMLGENLYPLVEQLEPESAAKVTGMLLEMDQTEVLHLLESPEALKAKVTEAMDVLRSVAQQQAGGAADQLASLSLGDNIVP
For B1, the binding entry in assay [3] was “no binding”.

B2: Mediator of ABA-Regulated Dormancy 1 (MARD1) full length, GAL4 activation domain fusion (pAD-GAL4-2.1 prey) (protein, UniProt Q8LGS1 1-263)
chain: MLRNKPRAAVTTKKQTSLLMADQPPPPKPNTCHCSPSLFSSPKFRFFTSKMMMTPFDSDFSLVSPTSILEANPSIFSSKNPKPVSYFEPTIPNPQRFHSPDVFGLADLVKDGDSNRDHSRKPVNKMVLFGSKLRVQIPSSADFGTKTGIRYPPCQLSPCVQTKVLAVSEIDQTEDYTRVISHGPNPTITHIFDNSVFVEATPCSVPLPQPAMETKSTESFLSRCFTCKKNLDQKQDIYIYRGEKGFCSSECRYQEMLLDQMET
B2: the binding entry in assay [4] is on record as “no binding”; in assay [5] it was “no binding”; in [3], “binds”; in assay [6], “no binding”.

B3: MARD1-NYFP (protein, UniProt Q8LGS1 1-263)
chain: MLRNKPRAAVTTKKQTSLLMADQPPPPKPNTCHCSPSLFSSPKFRFFTSKMMMTPFDSDFSLVSPTSILEANPSIFSSKNPKPVSYFEPTIPNPQRFHSPDVFGLADLVKDGDSNRDHSRKPVNKMVLFGSKLRVQIPSSADFGTKTGIRYPPCQLSPCVQTKVLAVSEIDQTEDYTRVISHGPNPTITHIFDNSVFVEATPCSVPLPQPAMETKSTESFLSRCFTCKKNLDQKQDIYIYRGEKGFCSSECRYQEMLLDQMET
For B3, the binding result in [7] is listed as “no binding”; in assay [8], “binds”; in [9] it was “binds”.

B4: AtMARD1 full length, HA-tagged (pGWB15) (protein, UniProt Q8LGS1 1-263)
chain: MLRNKPRAAVTTKKQTSLLMADQPPPPKPNTCHCSPSLFSSPKFRFFTSKMMMTPFDSDFSLVSPTSILEANPSIFSSKNPKPVSYFEPTIPNPQRFHSPDVFGLADLVKDGDSNRDHSRKPVNKMVLFGSKLRVQIPSSADFGTKTGIRYPPCQLSPCVQTKVLAVSEIDQTEDYTRVISHGPNPTITHIFDNSVFVEATPCSVPLPQPAMETKSTESFLSRCFTCKKNLDQKQDIYIYRGEKGFCSSECRYQEMLLDQMET
For B4, in assay [10], the binding result is “binds”.

B5: DCP5, GAL4 activation domain fusion (protein, UniProt Q9C658 1-611)
chain: MAADNTGSKSSSAADSYVGSLISLTSKSEIRYEGILYNINTDESSIGLQNVRSFGTEGRKKDGPQVPPSDKVYEYILFRGTDIKDLQVKASPPVQPPASTINNDPAIIQSHYPSPMPTSGSLPSTASGSLPDISSHNGQPGQHGMGFQNAMPLYQPGGNLGSWGASPQPPMYWQGFYTPPPNGLPQLHQQSLIRPPHGLPMPNSLQQPLQYPNFNTPPPPTGSSSLQGSSLPEAPSSLFPFSTSSQMLAPSSLPFPGLPPVTLSSSLQSTLQSAPSPSLASEMAPPLLSNKAPITAPPTLPQDTNLLSFSLSTTRATEASTGLPLSNKPSVVTGPISPPQTTPLTSAPVAGVSSSISQDKPKPLLVTPGQLLQSGSSAVSLSPPSTNADKDVEVVQVSSSAGLEQSVPVTSEAQPPILPLPSSARPTQKPNGHSFPNHNGYRGRGRGRGRGAGRSHQVMKFTEDFDFTAMNEKFNKDEVWGHLGKSTTLDGDEDDDSPTVDEAELPKIEAKPVYNKDDFFDSLSSNTIDRESQNSRPRFSEQRKLDTETFGEFSRFRGGRGGRGGYGRNNGYSRGGYGGRGYGGYGGRGGGGGGYGYGGRGQGRGVSNRTT
Consider B5, for which, in assay [3], the binding entry is recorded as “no binding”.
